Measurements from publication PMC11730779.
No constants are given. Whether binding was seen depends on the method and setting. Binding seen in cells or lysates may run through a third protein. Some entries that bind do so weakly or less than the wild type.

By UniProt entry, the sequences of proteins in these tests, tags left out.
UniProt P11881: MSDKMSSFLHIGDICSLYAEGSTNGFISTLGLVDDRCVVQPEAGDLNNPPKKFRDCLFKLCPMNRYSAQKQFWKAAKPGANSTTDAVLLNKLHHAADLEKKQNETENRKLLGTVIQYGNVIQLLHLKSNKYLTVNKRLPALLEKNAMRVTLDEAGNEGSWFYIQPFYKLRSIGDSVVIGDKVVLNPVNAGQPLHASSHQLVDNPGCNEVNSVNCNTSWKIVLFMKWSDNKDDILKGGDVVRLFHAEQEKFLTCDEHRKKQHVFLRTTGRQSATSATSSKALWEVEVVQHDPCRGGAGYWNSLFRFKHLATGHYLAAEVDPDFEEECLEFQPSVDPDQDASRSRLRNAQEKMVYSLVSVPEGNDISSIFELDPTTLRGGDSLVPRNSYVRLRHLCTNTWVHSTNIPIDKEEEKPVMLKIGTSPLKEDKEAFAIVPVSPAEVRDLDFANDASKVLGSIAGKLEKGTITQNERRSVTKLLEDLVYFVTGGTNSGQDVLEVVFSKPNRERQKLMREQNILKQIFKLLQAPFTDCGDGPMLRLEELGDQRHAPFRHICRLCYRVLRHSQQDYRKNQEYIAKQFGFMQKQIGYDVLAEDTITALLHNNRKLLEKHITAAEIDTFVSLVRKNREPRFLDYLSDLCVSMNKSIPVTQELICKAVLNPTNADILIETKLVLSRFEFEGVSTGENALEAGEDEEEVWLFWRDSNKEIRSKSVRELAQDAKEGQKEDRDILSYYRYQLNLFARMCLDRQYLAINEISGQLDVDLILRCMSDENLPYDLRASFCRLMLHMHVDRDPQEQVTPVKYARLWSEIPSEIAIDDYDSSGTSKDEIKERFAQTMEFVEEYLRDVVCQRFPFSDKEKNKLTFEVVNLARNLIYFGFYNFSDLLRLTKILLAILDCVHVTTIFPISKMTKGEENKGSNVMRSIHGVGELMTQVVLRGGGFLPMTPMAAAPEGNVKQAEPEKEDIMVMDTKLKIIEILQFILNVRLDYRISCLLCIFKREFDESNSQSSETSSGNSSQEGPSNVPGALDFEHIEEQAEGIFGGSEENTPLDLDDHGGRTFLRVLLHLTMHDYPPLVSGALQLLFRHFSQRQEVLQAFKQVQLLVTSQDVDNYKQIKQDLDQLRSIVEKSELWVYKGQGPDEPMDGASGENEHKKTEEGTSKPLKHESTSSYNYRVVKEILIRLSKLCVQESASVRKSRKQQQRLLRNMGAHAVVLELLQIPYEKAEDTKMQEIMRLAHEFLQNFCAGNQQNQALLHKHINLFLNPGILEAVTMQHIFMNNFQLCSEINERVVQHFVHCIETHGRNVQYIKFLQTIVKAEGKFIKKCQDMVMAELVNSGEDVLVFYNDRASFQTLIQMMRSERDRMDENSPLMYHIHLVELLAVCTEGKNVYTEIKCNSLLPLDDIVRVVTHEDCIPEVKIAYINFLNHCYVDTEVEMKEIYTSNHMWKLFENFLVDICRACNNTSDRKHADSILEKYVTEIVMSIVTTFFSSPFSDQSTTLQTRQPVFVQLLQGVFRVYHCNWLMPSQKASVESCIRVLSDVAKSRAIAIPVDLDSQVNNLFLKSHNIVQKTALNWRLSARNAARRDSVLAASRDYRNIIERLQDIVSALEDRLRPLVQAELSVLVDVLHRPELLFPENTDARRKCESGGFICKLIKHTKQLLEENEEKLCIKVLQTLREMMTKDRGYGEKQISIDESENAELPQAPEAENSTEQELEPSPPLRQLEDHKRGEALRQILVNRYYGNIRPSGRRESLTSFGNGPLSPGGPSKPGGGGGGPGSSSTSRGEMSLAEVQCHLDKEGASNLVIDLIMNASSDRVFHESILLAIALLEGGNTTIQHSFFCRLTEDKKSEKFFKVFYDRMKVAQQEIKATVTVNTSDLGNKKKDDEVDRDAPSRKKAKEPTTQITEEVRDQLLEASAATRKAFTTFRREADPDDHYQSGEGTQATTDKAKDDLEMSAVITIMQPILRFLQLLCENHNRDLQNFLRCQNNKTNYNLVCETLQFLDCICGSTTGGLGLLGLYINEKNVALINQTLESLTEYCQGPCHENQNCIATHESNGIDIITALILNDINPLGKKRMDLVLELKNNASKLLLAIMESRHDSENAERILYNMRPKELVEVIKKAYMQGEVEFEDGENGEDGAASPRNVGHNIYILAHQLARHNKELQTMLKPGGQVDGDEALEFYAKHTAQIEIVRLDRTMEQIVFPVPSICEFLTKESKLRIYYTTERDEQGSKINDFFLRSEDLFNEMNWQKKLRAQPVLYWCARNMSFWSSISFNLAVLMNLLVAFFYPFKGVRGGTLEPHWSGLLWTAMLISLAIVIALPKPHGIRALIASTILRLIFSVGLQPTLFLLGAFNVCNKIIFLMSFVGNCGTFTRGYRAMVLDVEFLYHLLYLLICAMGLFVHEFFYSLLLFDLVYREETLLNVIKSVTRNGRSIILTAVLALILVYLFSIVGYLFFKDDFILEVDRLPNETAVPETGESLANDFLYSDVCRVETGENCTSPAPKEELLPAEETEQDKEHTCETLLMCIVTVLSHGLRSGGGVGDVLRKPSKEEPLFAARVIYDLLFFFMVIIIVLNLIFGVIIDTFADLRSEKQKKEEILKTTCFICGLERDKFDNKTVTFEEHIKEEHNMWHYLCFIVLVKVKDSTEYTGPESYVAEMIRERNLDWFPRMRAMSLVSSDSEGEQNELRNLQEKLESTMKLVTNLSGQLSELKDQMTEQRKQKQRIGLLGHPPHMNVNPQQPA
UniProt Q14643: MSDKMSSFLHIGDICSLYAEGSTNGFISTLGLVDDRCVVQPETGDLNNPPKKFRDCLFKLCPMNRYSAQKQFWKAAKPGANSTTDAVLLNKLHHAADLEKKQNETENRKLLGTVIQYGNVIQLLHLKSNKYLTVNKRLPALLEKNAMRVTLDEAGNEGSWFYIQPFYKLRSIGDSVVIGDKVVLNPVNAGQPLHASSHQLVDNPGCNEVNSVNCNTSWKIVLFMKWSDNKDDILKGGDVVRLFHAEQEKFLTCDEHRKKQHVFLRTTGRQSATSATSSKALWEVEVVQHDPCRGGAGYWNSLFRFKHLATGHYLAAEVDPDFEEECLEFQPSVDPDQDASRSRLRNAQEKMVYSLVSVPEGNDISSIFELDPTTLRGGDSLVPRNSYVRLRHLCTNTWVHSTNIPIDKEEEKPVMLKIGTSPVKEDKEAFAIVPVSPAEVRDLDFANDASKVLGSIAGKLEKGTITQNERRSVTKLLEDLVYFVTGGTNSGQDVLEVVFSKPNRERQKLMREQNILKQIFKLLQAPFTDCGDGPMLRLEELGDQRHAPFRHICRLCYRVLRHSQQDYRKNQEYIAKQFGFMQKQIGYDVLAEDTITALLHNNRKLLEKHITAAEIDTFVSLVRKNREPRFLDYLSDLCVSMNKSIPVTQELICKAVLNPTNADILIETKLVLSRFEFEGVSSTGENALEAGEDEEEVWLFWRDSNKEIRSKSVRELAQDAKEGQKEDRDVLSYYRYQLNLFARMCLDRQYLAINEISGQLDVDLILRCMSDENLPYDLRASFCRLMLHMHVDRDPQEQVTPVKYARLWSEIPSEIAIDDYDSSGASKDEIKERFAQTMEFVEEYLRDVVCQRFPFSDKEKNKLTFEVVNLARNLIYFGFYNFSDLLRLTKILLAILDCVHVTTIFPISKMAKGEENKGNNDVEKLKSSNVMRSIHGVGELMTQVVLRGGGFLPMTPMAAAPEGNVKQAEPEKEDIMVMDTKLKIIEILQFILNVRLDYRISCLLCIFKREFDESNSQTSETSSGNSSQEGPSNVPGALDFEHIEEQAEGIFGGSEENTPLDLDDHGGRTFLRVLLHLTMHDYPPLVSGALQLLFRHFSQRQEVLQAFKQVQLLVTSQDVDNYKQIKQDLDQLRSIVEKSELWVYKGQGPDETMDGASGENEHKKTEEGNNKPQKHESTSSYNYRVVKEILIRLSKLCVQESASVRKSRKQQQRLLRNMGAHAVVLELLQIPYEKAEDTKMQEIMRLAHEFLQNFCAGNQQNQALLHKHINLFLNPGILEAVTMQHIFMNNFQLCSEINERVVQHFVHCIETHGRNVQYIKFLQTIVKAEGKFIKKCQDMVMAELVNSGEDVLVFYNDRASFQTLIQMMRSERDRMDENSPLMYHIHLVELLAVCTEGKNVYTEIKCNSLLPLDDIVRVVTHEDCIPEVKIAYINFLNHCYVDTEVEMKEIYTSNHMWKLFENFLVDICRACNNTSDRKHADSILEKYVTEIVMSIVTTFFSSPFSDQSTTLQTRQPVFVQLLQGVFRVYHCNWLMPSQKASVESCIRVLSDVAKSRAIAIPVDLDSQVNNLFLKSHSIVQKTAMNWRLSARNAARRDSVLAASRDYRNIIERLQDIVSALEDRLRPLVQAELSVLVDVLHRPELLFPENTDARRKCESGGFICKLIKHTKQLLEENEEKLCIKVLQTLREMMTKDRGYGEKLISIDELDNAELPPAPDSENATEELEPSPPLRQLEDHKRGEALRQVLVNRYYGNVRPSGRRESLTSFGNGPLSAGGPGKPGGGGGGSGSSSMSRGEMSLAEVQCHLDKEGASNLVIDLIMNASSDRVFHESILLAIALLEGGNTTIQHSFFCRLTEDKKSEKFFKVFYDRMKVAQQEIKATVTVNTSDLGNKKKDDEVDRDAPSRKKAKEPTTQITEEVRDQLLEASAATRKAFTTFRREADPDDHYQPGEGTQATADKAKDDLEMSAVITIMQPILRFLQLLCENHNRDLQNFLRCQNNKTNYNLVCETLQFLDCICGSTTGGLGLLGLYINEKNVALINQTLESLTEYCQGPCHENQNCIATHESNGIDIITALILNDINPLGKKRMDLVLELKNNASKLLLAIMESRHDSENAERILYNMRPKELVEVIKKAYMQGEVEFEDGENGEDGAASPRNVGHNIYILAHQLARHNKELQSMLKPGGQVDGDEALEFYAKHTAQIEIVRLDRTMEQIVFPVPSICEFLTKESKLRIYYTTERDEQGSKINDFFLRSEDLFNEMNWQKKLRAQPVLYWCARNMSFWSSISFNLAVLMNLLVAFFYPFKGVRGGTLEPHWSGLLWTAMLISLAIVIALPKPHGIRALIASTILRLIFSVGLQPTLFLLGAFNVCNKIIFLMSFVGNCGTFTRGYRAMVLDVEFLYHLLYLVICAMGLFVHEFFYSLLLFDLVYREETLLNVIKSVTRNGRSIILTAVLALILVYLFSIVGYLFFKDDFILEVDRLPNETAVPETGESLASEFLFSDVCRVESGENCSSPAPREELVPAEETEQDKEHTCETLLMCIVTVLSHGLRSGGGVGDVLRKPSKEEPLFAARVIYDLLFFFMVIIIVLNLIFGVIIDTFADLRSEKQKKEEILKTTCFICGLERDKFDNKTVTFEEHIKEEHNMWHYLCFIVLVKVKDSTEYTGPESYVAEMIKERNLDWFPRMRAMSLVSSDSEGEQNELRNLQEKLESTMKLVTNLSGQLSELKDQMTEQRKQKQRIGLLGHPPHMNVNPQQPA

Legend:
[1] = biological target: inositol 1,4,5-trisphosphate receptor type 1 (IP3R1), endogenous in mouse pituitary αT3 cells (mouse (endogenous in αT3)) (UniProt P11881); experiment: co-IP; endogenous proteins of WT αT3 cells (untreated or 100 nM CalA and/or 20 µM Fsk, 10 min); 1% CHAPS lysis buffer; anti-IP3R1 and protein A-Sepharose, ~16 h, 4 °C; Bok found by immunoblot (Bok antibodies, RRXpS) or mass spectrometry
[2] = biological target: IP3R1, endogenous in HEK-IP3R1 cells (human (endogenous in HEK-IP3R1)) (UniProt Q14643); experiment: co-IP; HEK-IP3R1 cells stably expressing Bok constructs; 1% CHAPS lysates; IP of endogenous IP3R1 with anti-IP3R1, immunoblot for Bok; for Bok^WT also after 1 µM PGE1 for 2.5 or 10 min
[3] = biological target: IP3R1, endogenous in HEK-IP3R1 cells (human (endogenous in HEK-IP3R1)) (UniProt Q14643); experiment: co-IP; IP3R1 IPs (Bok-IP3R1 complex on beads) from HEK-IP3R1 cells stably expressing Bok^WT, resuspended in phosphorylation buffer (120 mM KCl, 50 mM Tris, 1 mM MgCl2, 1 mM ATP, pH 7.2) without or with the catalytic subunit of PKA (1:100), 32 °C, 10 min; immunoblot for Bok

Binder | binding [1] | binding [2] | binding [3]
Bok (Bcl-2-related ovarian killer), endogenous in mouse pituitary αT3 cells (protein, UniProt O35425 1-213) MEVLRRSSVFAAEIMDAFDRSPTDKELVAQAKALGREYVHARLLRAGLSWSAPERASPAPGGRLAEVCTVLLRLGDELEQIRPSVYRNVARQLHIPLQSEPVVTDAFLAVAGHIFSAGITWGKVVSLYSVAAGLAVDCVRQAQPAMVHALVDCLGEFVRKTLATWLRRRGGWTDVLKCVVSTDPGFRSHWLVATLCSFGRFLKAAFFLLLPER | binds |  | 
Bok^WT (exogenous wild-type Bok) (protein, UniProt Q9UMX3 1-212) MEVLRRSSVFAAEIMDAFDRSPTDKELVAQAKALGREYVHARLLRAGLSWSAPERAAPVPGRLAEVCAVLLRLGDELEMIRPSVYRNVARQLHISLQSEPVVTDAFLAVAGHIFSAGITWGKVVSLYAVAAGLAVDCVRQAQPAMVHALVDCLGEFVRKTLATWLRRRGGWTDVLKCVVSTDPGLRSHWLVAALCSFGRFLKAAFFVLLPER |  | binds | binds
Bok^WT phosphorylated at Ser-8 (exogenous) (protein, UniProt Q9UMX3 1-212, phosphoserine at 8 (Ser-8)) MEVLRRSSVFAAEIMDAFDRSPTDKELVAQAKALGREYVHARLLRAGLSWSAPERAAPVPGRLAEVCAVLLRLGDELEMIRPSVYRNVARQLHISLQSEPVVTDAFLAVAGHIFSAGITWGKVVSLYAVAAGLAVDCVRQAQPAMVHALVDCLGEFVRKTLATWLRRRGGWTDVLKCVVSTDPGLRSHWLVAALCSFGRFLKAAFFVLLPER |  | binds | binds
Bok phosphorylated at Ser-8, endogenous in αT3 cells treated with CalA and Fsk (protein, UniProt O35425 1-213, phosphoserine at 8 (Ser-8)) MEVLRRSSVFAAEIMDAFDRSPTDKELVAQAKALGREYVHARLLRAGLSWSAPERASPAPGGRLAEVCTVLLRLGDELEQIRPSVYRNVARQLHIPLQSEPVVTDAFLAVAGHIFSAGITWGKVVSLYSVAAGLAVDCVRQAQPAMVHALVDCLGEFVRKTLATWLRRRGGWTDVLKCVVSTDPGFRSHWLVATLCSFGRFLKAAFFLLLPER | binds |  | 
Bok^S8A (protein, UniProt Q9UMX3 1-212) MEVLRRSAVFAAEIMDAFDRSPTDKELVAQAKALGREYVHARLLRAGLSWSAPERAAPVPGRLAEVCAVLLRLGDELEMIRPSVYRNVARQLHISLQSEPVVTDAFLAVAGHIFSAGITWGKVVSLYAVAAGLAVDCVRQAQPAMVHALVDCLGEFVRKTLATWLRRRGGWTDVLKCVVSTDPGLRSHWLVAALCSFGRFLKAAFFVLLPER |  | binds | 
Bok^S8E (protein, UniProt Q9UMX3 1-212) MEVLRRSEVFAAEIMDAFDRSPTDKELVAQAKALGREYVHARLLRAGLSWSAPERAAPVPGRLAEVCAVLLRLGDELEMIRPSVYRNVARQLHISLQSEPVVTDAFLAVAGHIFSAGITWGKVVSLYAVAAGLAVDCVRQAQPAMVHALVDCLGEFVRKTLATWLRRRGGWTDVLKCVVSTDPGLRSHWLVAALCSFGRFLKAAFFVLLPER |  | binds | 
